This experiment has as its target FLAG-tagged RpoD (sigma factor 70) (C. crescentus) (UniProt P52324). Kind of experiment: co-IP; FLAG-tagged RpoD as bait on anti-FLAG magnetic beads (μMACS kit); stationary-phase C. crescentus lysate in 50 mM Tris-HCl pH 8, 150 mM NaCl, 1% Triton X-100, with Benzonase; immunoblots with anti-GafY, anti-ParB, anti-FLAG. For orientation: A western blot detects proteins with antibodies after separation by electrophoresis.

Sequences of proteins named here, by UniProt entry; tags and fusion partners are left off.
UniProt P52324: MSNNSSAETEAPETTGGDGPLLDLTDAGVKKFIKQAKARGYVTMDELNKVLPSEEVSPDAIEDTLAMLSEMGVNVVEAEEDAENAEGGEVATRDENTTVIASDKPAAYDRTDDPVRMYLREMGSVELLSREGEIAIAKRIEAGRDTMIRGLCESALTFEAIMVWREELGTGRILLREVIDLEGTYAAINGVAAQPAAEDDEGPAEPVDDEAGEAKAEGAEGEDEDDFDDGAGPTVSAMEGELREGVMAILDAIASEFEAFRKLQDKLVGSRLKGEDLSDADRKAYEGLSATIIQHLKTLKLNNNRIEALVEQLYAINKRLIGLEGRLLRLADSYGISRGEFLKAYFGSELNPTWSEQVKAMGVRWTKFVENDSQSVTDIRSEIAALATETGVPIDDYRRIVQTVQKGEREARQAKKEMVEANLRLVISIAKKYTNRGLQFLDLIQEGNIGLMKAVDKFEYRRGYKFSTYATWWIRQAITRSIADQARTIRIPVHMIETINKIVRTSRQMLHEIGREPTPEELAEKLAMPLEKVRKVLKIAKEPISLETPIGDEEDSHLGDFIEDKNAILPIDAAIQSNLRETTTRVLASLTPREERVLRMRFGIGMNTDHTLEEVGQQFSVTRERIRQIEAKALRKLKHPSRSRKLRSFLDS

No constants are given. Whether binding was seen depends on the method and setting. Binding seen in cells or lysates may run through a third protein.

B1: ParB (protein, UniProt B8GW30 1-304)
chain: MESVVVGEPGMSEGRRGLGRGLSALLGEVDAAPAQAPGEQLGGSREAPIEILQRNPDQPRRTFREEDLEDLSNSIREKGVLQPILVRPSPDTAGEYQIVAGERRWRAAQRAGLKTVPIMVRELDDLAVLEIGIIENVQRADLNVLEEALSYKVLMEKFERTQENIAQTIGKSRSHVANTMRLLALPDEVQSYLVSGELTAGHARAIAAAADPVALAKQIIEGGLSVRETEALARKAPNLSAGKSKGGRPPRVKDTDTQALESDLSSVLGLDVSIDHRGSTGTLTITYATLEQLDDLCNRLTRGI
Consider B1, for which the binding entry is “no binding”.

The record behind these values is PMC11150451.
